Out of some 340,000 compounds screened, about 4,500 (1.3%) were called active. Inconclusive means that the source gave no clear call. Such entries were picked first, then a sample of the others. Calls follow the shape of the dose curve; as a rule, active = well fitted inhibition curve with a large enough effect; inconclusive = small, poorly fitted or top-dose-only effect, or another doubt; inactive = no such curve, though single readings can be large or run the other way. Where the call is inconclusive, the potency comes from a doubtful curve fit.
target: DNA polymerase beta (Homo sapiens) (UniProt P06746); test: qHTS Assay for Inhibitors of DNA Polymerase Beta; conditions: Pol beta primer extension/strand displacement, fluorescence kinetic; activity change, negative = inhibition: at 114 µM (top of the series)
How it was run: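 Curves were derived by four-parameter Hill fits of normalized qHTS data. The kinetic fluorescent primer-extension read was taken at 0 and 10 min after 50 nM substrate, following a 15 min room-temperature preincubation of 10 nM enzyme with compounds.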
% is scaled to controls: 0 for no effect and ±100 for the full control effect; potency is read from the fitted curve at half-maximal effect.

SMILES | Potency | activity change, negative = inhibition
Cc1cccc(N2CC(C(=O)Nc3nnc(SCC(=O)Nc4nccs4)s3)CC2=O)c1 (stereo not given) | inconclusive: 50.1 µM [inhibitor, partial curve] | 
O=C(NCc1ccc(C(F)(F)F)cc1)C1CC(c2ccccc2[N+](=O)[O-])=NO1 (stereo not given) | inconclusive: 0.251 µM [inhibitor, full curve, poor fit] | 
C=CCn1c2ccccc2c2nnc(SCC(=O)Nc3c(C)n(C)n(-c4ccccc4)c3=O)nc21 | inconclusive: 70.8 µM [inhibitor, single point] | 
Cc1nc(NC2=NCN(C3CCCCC3C)CN2)nc2ccccc12 (stereo not given) | inconclusive: 79.4 µM [inhibitor, single point] | 
CC1=NN(C(N)=S)C(=O)C1N=Nc1ccc(O)cc1 (stereo not given) | inconclusive: 15.8 µM [inhibitor, partial curve, poor fit] | 
COc1ccc(-c2c(C#N)c(SCC(=O)Nc3ccc(Br)cc3)nc(C)c2C(=O)Nc2ccccc2)cc1 | inactive | 
CCOc1ccc(CCNC(=O)c2ccc3c(c2)N(Cc2ccccc2)C(=O)c2ccccc2S3=O)cc1OCC (stereo not given) | inconclusive: 7.94 µM [inhibitor, full curve] | 
Cc1ccc(C)c(NS(=O)(=O)c2ccc3[nH]c(=O)oc3c2)c1 | active: 31.6 µM | 
Cc1cccc2cc(C(c3nnnn3C(C)(C)C)N3CCN(C(=O)c4ccco4)CC3)c(=O)[nH]c12 (stereo not given) | inconclusive: 89.1 µM [inhibitor, single point] | 
Cc1cc(C(=O)NC(=S)Nc2ccccc2N2CCOCC2)ccc1[N+](=O)[O-] | inactive | 
Cc1ccccc1C1=NC(c2ccc(F)cc2F)ON1 (stereo not given) | inconclusive: 89.1 µM [inhibitor, single point] | 
Cc1nn(-c2ccccc2)c(Cl)c1C(=O)NC1CCCCC1 | inconclusive: 1.78 µM [inhibitor, full curve, poor fit] | 
COc1ccc(-c2cn3c(n2)sc2cc(C(=O)NCCCN4CCCCC4)ccc23)cc1 | inactive | 
Cc1ccc(C)n1C(Cc1ccccc1)C(=O)O (stereo not given) | active: 10 µM | 
CCc1ccc(NS(=O)(=O)c2ccc3[nH]cc(C(=O)NCc4ccc(C)cc4)c(=O)c3c2)cc1 | inconclusive: 17.8 µM [inhibitor, partial curve] | 
CCOc1ccc(-c2c(C)nn3c(C)c(C(=O)NCCc4ccccc4)cnc23)cc1OCC | inconclusive: 89.1 µM [inhibitor, single point] | 
COc1ccc(OCc2cc(C(=O)NC(C)Cc3cnccn3)no2)c(Cl)c1 (stereo not given) |  | inconclusive: -49.8% [inhibitor]
COc1ccccc1CNC(=O)CSc1cc(=O)n(C)c2ccccc12 | inconclusive: 100 µM [inhibitor, single point] | 
Cc1ccc(NC2=NC(c3ccc(F)cc3)n3c(nc(C)cc3=O)N2)c(C)c1 (stereo not given) |  | inconclusive: -31.5% [inhibitor]
CC(=O)NCC1CCCN(c2nc3nonc3nc2N(C)Cc2ccccc2)C1 (stereo not given) | inconclusive: 79.4 µM [inhibitor, single point] | 
CC(=O)CN1C(=O)NC(c2ccccc2)(c2ccccc2)C1=O | inconclusive: 31.6 µM [inhibitor, partial curve] | 
Cc1cccc(C)c1NS(=O)(=O)c1ccc2c(c1)[C@H]1C=CC[C@H]1[C@@H](c1ccc(Cl)cc1)N2 | inconclusive: 15.8 µM [inhibitor, single point] | 

Structures listed so far with sulfur:
SMILES | Potency | activity change, negative = inhibition
Cc1cccc(N2CC(C(=O)Nc3nnc(SCC(=O)Nc4nccs4)s3)CC2=O)c1 (stereo not given) | inconclusive: 50.1 µM [inhibitor, partial curve] | 
C=CCn1c2ccccc2c2nnc(SCC(=O)Nc3c(C)n(C)n(-c4ccccc4)c3=O)nc21 | inconclusive: 70.8 µM [inhibitor, single point] | 
CC1=NN(C(N)=S)C(=O)C1N=Nc1ccc(O)cc1 (stereo not given) | inconclusive: 15.8 µM [inhibitor, partial curve, poor fit] | 
COc1ccc(-c2c(C#N)c(SCC(=O)Nc3ccc(Br)cc3)nc(C)c2C(=O)Nc2ccccc2)cc1 | inactive | 
CCOc1ccc(CCNC(=O)c2ccc3c(c2)N(Cc2ccccc2)C(=O)c2ccccc2S3=O)cc1OCC (stereo not given) | inconclusive: 7.94 µM [inhibitor, full curve] | 
Cc1ccc(C)c(NS(=O)(=O)c2ccc3[nH]c(=O)oc3c2)c1 | active: 31.6 µM | 
Cc1cc(C(=O)NC(=S)Nc2ccccc2N2CCOCC2)ccc1[N+](=O)[O-] | inactive | 
COc1ccc(-c2cn3c(n2)sc2cc(C(=O)NCCCN4CCCCC4)ccc23)cc1 | inactive | 
CCc1ccc(NS(=O)(=O)c2ccc3[nH]cc(C(=O)NCc4ccc(C)cc4)c(=O)c3c2)cc1 | inconclusive: 17.8 µM [inhibitor, partial curve] | 
COc1ccccc1CNC(=O)CSc1cc(=O)n(C)c2ccccc12 | inconclusive: 100 µM [inhibitor, single point] | 
Cc1cccc(C)c1NS(=O)(=O)c1ccc2c(c1)[C@H]1C=CC[C@H]1[C@@H](c1ccc(Cl)cc1)N2 | inconclusive: 15.8 µM [inhibitor, single point] | 

Reprinted at random: 2 records from the list
SMILES | Potency | activity change, negative = inhibition
CCOc1ccc(CCNC(=O)c2ccc3c(c2)N(Cc2ccccc2)C(=O)c2ccccc2S3=O)cc1OCC (stereo not given) | inconclusive: 7.94 µM [inhibitor, full curve] | 
COc1ccc(OCc2cc(C(=O)NC(C)Cc3cnccn3)no2)c(Cl)c1 (stereo not given) |  | inconclusive: -49.8% [inhibitor]

The listing continues:

SMILES | Potency | activity change, negative = inhibition
O=C(COC(=O)c1ccc([N+](=O)[O-])o1)Nc1cccc2ccccc12 | inconclusive: 22.4 µM [inhibitor, partial curve] | 
CC(C)(Sc1ccc(CCN(CCCCC2CCCCC2)C(=O)NC2CCCCC2)cc1)C(=O)O | inconclusive: 35.5 µM [inhibitor, single point] | 
O=C(c1ccc(S(=O)(=O)N2CCc3ccccc3C2)cc1)N1CCCCC1 | inactive | 
Cc1ccc(-c2nc3c(c(=O)c4ccccc4n3C)c(=O)n2Cc2ccco2)cc1 | inconclusive: 25.1 µM [inhibitor, full curve] | 
CN1CCN(c2ccc(NC(=O)c3ccc(-c4ccc(Br)cc4)o3)cc2)CC1 | inactive | 
COC(=O)CC(NC(=S)NC(=O)c1ccccc1)c1ccc(Br)cc1 (stereo not given) | inconclusive: 0.794 µM [inhibitor, full curve, poor fit] | 
COc1cccc(/C=C2/C(=O)NN(c3ccc(F)cc3)C2=O)c1 | inactive | 
O=C(Cc1ccc(F)cc1)N1CCN(c2ccc([N+](=O)[O-])cc2)CC1 | inconclusive: 0.447 µM [inhibitor, full curve, poor fit] | 
CC1CCN(c2oc(-c3cccs3)nc2S(=O)(=O)c2ccccc2)CC1 | inconclusive: 20 µM [inhibitor, partial curve] | 
Cc1ccc(C(=O)N/C(=C/C=C\c2ccccc2)C(=O)NCc2ccco2)cc1 | inconclusive: 79.4 µM [inhibitor, single point] | 
CC1CCCCC1NC1=NCCCS1 (stereo not given) | inactive | 
C#Cc1ccc([C@H]2C=C(C(=O)O)O[C@@H](OCc3ccc(CO)cc3)C2)cc1 | active: 28.2 µM | 
Cc1nn(-c2ccccn2)c2nc(-c3cccs3)cc(C(=O)N3CCOCC3)c12 | inconclusive: 3.98 µM [inhibitor, single point] | 
COc1ccc(C(=O)COC(=O)c2ccccc2NS(=O)(=O)c2ccc(O)c([N+](=O)[O-])c2)cc1 | inconclusive: 50.1 µM [inhibitor, single point] | 
CCN1CCCC1CNCc1cccc(OC)c1OCc1ccccc1F (stereo not given) | inactive | 
CC1=CC2=C(OC1N(C)C)c1cccc3cccc(c13)C2=O (stereo not given) | inconclusive: 28.2 µM [inhibitor, full curve, poor fit] | 
O=C(N/N=C1\C(=O)c2cccc3cccc1c23)c1ccc(O)cc1 | active: 5.62 µM | 
CCOC(=O)c1c(NC(=O)CSc2nnc(CNc3ccc(F)cc3)o2)sc(C(C)=O)c1C | inconclusive: 39.8 µM [inhibitor, single point] | 
CC1CCCN(C(=S)SCC(=O)c2cc(Br)cc(Br)c2O)C1 (stereo not given) | active: 15.8 µM | 
O=C(Cn1cc(C(=O)c2ccco2)c2ccccc21)Nc1ccccc1 | inconclusive: 79.4 µM [inhibitor, single point] | 
CCOc1cc(C2C(C#N)=C(N)OC(C)=C2C(C)=O)cc(Br)c1O (stereo not given) | inconclusive: 15.8 µM [inhibitor, full curve] | 
COCCN1Cc2cccc(C(=O)Nc3ccc(-c4nc5ccccc5[nH]4)cc3)c2C1=O | inconclusive: 100 µM [inhibitor, single point] | 

SMILES | Potency | activity change, negative = inhibition
O=C(O)c1ccc(-n2cccc2)cc1O | inconclusive: 79.4 µM [inhibitor, single point] | 
CC(=O)N1CCc2c(sc3c2c(=O)n(-c2ccccc2Cl)c(=O)n3Cc2cccc(C)c2)C1 | inactive | 
C/C(=N\N=C1\NC(=O)C(CC(=O)Nc2ccc(C)c(Cl)c2)S1)C(C)(C)C (stereo not given) | inconclusive: 79.4 µM [inhibitor, partial curve, poor fit] | 
COc1ccc(-n2c(C)c3c(OC)cccc(=O)c3c2C)cc1 | inactive | 
CCOC(=O)c1ccc(NC(=O)N2CC3CCCN3c3ccccc32)cc1 (stereo not given) | inactive | 
COc1ccc2nc(NC(=O)C3CCCN(S(=O)(=O)c4cccc5nonc45)C3)sc2c1 (stereo not given) | inconclusive: 100 µM [inhibitor, single point] | 
COc1cccc(OCC(=O)NNC(=O)c2ccc(-c3ccccc3)cc2)c1 | active: 79.4 µM | 
Cc1cccc(C)c1OCCCCn1cnc2ccccc2c1=O | inconclusive: 8.91 µM [inhibitor, full curve, poor fit] | 
COc1cc2nc(NC(=O)c3ccc(S(=O)(=O)N4CCc5ccccc54)cc3)sc2cc1OC | inconclusive: 79.4 µM [inhibitor, single point] | 
Cc1ccc(N2CC(O)Cn3c2nc2c3c(=O)n(C)c(=O)n2C)cc1 (stereo not given) | inactive | 
COc1ccc(C(=O)CSc2cc(C)nc3nc(C)nn23)cc1OC | inconclusive: 89.1 µM [inhibitor, single point] | 
CC1CCCN(C(=O)COc2ccc(NC(=O)c3cccs3)cc2)C1 (stereo not given) | inconclusive: 28.2 µM [inhibitor, single point] | 
Cc1csc(NC(=O)CSc2nc(C)nc3c2c(=O)n(C)c(=O)n3C)n1 | inconclusive: 89.1 µM [inhibitor, single point] | 
CC1CCCCC1NC(=O)CSc1nnc(COc2ccc(Cl)cc2)o1 (stereo not given) | inconclusive: 3.16 µM [inhibitor, full curve, poor fit] | 
CS(=O)(=O)N(CCc1ccccc1)CC(=O)Nc1ccc(OCc2ccccc2)cc1 | inconclusive: 2.51 µM [inhibitor, full curve, poor fit] | 
CN(C)S(=O)(=O)c1cccc(NC(=O)CSc2nnnn2-c2ccccc2)c1 | inconclusive: 0.708 µM [inhibitor, partial curve, poor fit] | 
CC(C)COc1ccc(C(=O)Nc2ccc(NC(=O)c3ccco3)cc2)cc1 | inconclusive: 3.98 µM [inhibitor, partial curve, poor fit] | 
O=C(Nc1cccc([N+](=O)[O-])c1)c1cccc(C(=O)Nc2cccc([N+](=O)[O-])c2)c1 | active: 1.12 µM | 
CCc1cc(C(=O)N/N=C/c2ccc(O)cc2O)c2ccccc2n1 | inconclusive: 0.141 µM [inhibitor, full curve, poor fit] | 
O=[N+]([O-])c1cccc(-c2ccc(C(=S)N3CCOCC3)o2)c1 | inactive | 
COc1ccccc1CNC(=S)Nc1cc(C)ccc1C | inconclusive: 2.51 µM [inhibitor, partial curve, poor fit] | 

Reference: PubChem BioAssay AID485314 (National Center for Advancing Translational Sciences (NCATS), 2010)
